# Test results from PubChem BioAssay AID602313 (National Center for Advancing Translational Sciences (NCATS), 2012).
# The campaign covered roughly 390,000 compounds. About 760 (0.19%) were called active. Inconclusive means that the source gave no clear call. Such entries were picked first, then a sample of the others. The call rests on the fitted dose curve; in most records, active means well fitted inhibition curve with a large enough effect; inconclusive means small, poorly fitted or top-dose-only effect; inactive means flat fitted curve, though single readings scatter. A potency beside an inconclusive call is a rough fit, not a confirmed value.
# Experiment: qHTS for Inhibitors of Vif-A3F Interactions: qHTS; further: nearly all actives have a fitted effect of over 65% in size
# Settings: HeLa A3F-eYFP + Vif (tagged APOBEC3F with the HIV-1 protein that degrades it), YFP fluorescence increase; series mostly up to 46.1 µM
# In short: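 HeLa cells stably expressing A3F-eYFP plus Vif, plated and incubated overnight at 37 deg C, then exposed to compounds overnight at 37 deg C. Blocked degradation read as raised yellow fluorescence (Ex 488/Em 500-530).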
# Potency means the concentration at half of the fitted maximal effect.
row,SMILES,Potency
1,O=C(NCCCNCc1ccccc1)/C(=N\O)c1ccccc1,"inconclusive: 3.98 µM [inhibitor, single point]"
2,NC(=N\N=Cc1ccccc1)/C(N)=N/N=Cc1ccccc1,"inconclusive: 1.41 µM [inhibitor, partial curve, poor fit]"
3,CCCCOc1ccc(Nc2cc(Cl)ccc2C(=O)O)cn1,inactive
4,COc1ccc(C(=O)c2sc(Nc3cccc(OC)c3)c(C(=O)Nc3cccc(C)c3C)c2N)cc1,"inconclusive: 35.5 µM [inhibitor, single point]"
5,O=C(c1ccccc1)n1ccc(-c2cccs2)n1,"inconclusive: 1.41 µM [inhibitor, full curve]"
6,CC(C)(Oc1ccc(Cl)cc1)C(=O)NCc1n[nH]c(=O)c2ccccc12,"inconclusive: 35.5 µM [inhibitor, single point]"
7,CC(=O)OCC1=C(C(=O)OC(C)(C)C)N2C(=O)[C@@H](NC(=O)Cc3ccccc3)[C@H]2SC1,"inconclusive: 15.8 µM [inhibitor, single point]"
8,CC(=O)/C=C/c1ccccc1Oc1c(F)c(F)nc(F)c1F,inactive
9,Cc1onc(-c2ccc(F)cc2F)c1C(=O)Nc1cccc(C(F)(F)F)c1,"inconclusive: 35.5 µM [inhibitor, single point]"
10,COc1ccc(CC(C)CC(=O)Nc2ccc(OC)cc2)cc1 (configuration not stated),"inconclusive: 35.5 µM [inhibitor, single point]"
11,COc1cccc(NC(=S)NCc2ccccc2)c1,"inconclusive: 35.5 µM [inhibitor, single point]"
12,COc1ccccc1C(=O)Nc1nnc(SCC(=O)Nc2ccc3c(c2)oc2ccccc23)s1,"inconclusive: 20 µM [inhibitor, partial curve, poor fit]"
13,CCN1CCN(C(=O)/C(=C/c2ccco2)NC(=O)c2ccccc2)CC1,"inconclusive: 31.6 µM [inhibitor, partial curve, poor fit]"
14,COc1ccc(CCNc2ccc(C(CC(N)=O)NC(=O)c3ccccc3)cc2[N+](=O)[O-])cc1 (configuration not stated),"inconclusive: 17.8 µM [inhibitor, partial curve, poor fit]"
15,CCOC(=O)C1CCCc2c1[nH]c1ccc(Cl)cc21 (configuration not stated),"inconclusive: 8.91 µM [inhibitor, partial curve, poor fit]"
16,O=S(=O)(Nc1nc2n(n1)C(c1ccc(F)cc1)C=C(c1ccccc1)N2)c1ccc(Cl)cc1 (configuration not stated),"inconclusive: 28.2 µM [inhibitor, single point]"
17,COc1ccc(C)cc1NC(=O)c1cnc2scc(C)n2c1=O,inactive
18,CN(Cc1ccccc1)C(=O)c1ccc2c(c1)OCO2,inactive
19,COc1cc(OC)c(N(C)S(=O)(=O)c2cccc(C(=O)Nc3nccs3)c2)cc1Cl,"inconclusive: 6.31 µM [inhibitor, single point]"
20,Cc1ccc2c(c1)S/C(=C/c1ccc[n+](CCO)c1)N2C,"inconclusive: 31.6 µM [inhibitor, single point]"
21,COc1ccc(Br)cc1CNC(=O)CN1C(=O)C(c2ccccc2)Oc2cccnc21 (configuration not stated),"inconclusive: 35.5 µM [inhibitor, single point]"
22,CSc1nsc(/C=C/Nc2ccc(F)cc2)c1C#N,active: 22.4 µM
23,Cc1cccc(N2CCN(C(=O)c3cccc(S(=O)(=O)N4CCCCC4)c3)CC2)c1C,inactive

row,SMILES,Potency
1,Cc1oc(C)c2c(=O)cc(-c3ccc4c(c3)OCO4)cc(OC(=O)c3ccccc3Cl)c12,"inconclusive: 25.1 µM [inhibitor, partial curve, poor fit]"
2,COc1ccc(-c2csc(NC(=O)CSc3nc4ccccc4c(=O)[nH]3)n2)cc1,"inconclusive: 35.5 µM [inhibitor, single point]"
3,CCN1C(=O)/C(=C2/Sc3ccc(OC)cc3N2C)SC1=Nc1cccc(O)c1,"inconclusive: 22.4 µM [inhibitor, single point]"
4,Nc1nc2ccccc2n1CCOc1ccc(Br)cc1,"inconclusive: 11.2 µM [inhibitor, partial curve, poor fit]"
5,CC(C)c1ccc2c(c1)C(N1CCNCC1)Cc1ccc(F)cc1S2 (configuration not stated),inactive
6,CCCCCCN1C[C@@H](n2cc(-c3ccc(F)cc3)nn2)[C@H](O)C[C@@H]1c1ccc(OC)cc1,"inconclusive: 11.2 µM [inhibitor, partial curve, poor fit]"
7,Cc1csc(N/N=C/c2ccccn2)n1,"inconclusive: 3.55 µM [inhibitor, single point]"
8,O=C(/C=C/c1ccccc1Cl)c1ccccc(=O)c1O,"inconclusive: 3.16 µM [inhibitor, single point]"
9,Cc1cccc(NC(=S)N=Nc2c(O)n(CN3CCOCC3)c3ccccc23)c1C,"inconclusive: 0.562 µM [inhibitor, full curve, poor fit]"
10,CC(C)NC(=O)CN1C(=O)C(=O)c2ccccc21,"inconclusive: 11.2 µM [inhibitor, partial curve, poor fit]"
11,CC(NC(=O)CN(C)CC(=O)Nc1ccccc1Br)c1ccccc1 (configuration not stated),inactive
12,O=C(Cn1c(-c2cccs2)cc2cc(Cl)ccc21)N1CCN(c2ccccc2)CC1,inactive
13,Cc1nnc(NC(=O)CSc2ccccn2)s1,"inconclusive: 6.31 µM [inhibitor, single point]"
14,Cc1cccc(NC(=O)Nc2ccc3c(c2)N(C)C(=O)CS3)n1,"inconclusive: 14.1 µM [inhibitor, single point]"
15,CC(=O)c1ccc(OCC(=O)N(CCC2=CCCCC2)c2c(N)n(Cc3ccccc3)c(=O)[nH]c2=O)cc1,"inconclusive: 22.4 µM [inhibitor, single point]"
16,Cc1ccc(Cl)cc1N1CCN(C(=S)NCc2ccco2)CC1,inactive
17,O=C(N/N=C(\c1ccccc1)c1cccnc1)c1cccc(F)c1,inactive
18,CCc1ccc(-c2nc(CN3CCCC(C(=O)N4CCN(c5cc(Cl)ccc5C)CC4)C3)c(C)o2)cc1 (configuration not stated),inactive
19,CCC1=Nc2cc(C(=O)NCc3ccco3)ccc2Sc2ccccc21,inactive
20,Cc1nc(N2CCOCC2)[nH]c(=O)c1C,"inconclusive: 5.62 µM [inhibitor, single point]"
21,COc1ccc(/C=C/C(=O)c2ccc(C)c([N+](=O)[O-])c2)cc1O,"inconclusive: 2.51 µM [inhibitor, full curve, poor fit]"
22,Cc1cccn2c(=O)c(C=O)c(Cl)nc12,"inconclusive: 35.5 µM [inhibitor, single point]"
23,Cc1cc(C)nc(Nc2n[nH]c(COc3ccc4ccccc4c3)n2)n1,inactive

row,SMILES,Potency
1,CNS(=O)(=O)c1cccc(C(=O)OCC(=O)Nc2ccc(-c3nc4ccc(C)cc4s3)cc2)c1,"inconclusive: 5.62 µM [inhibitor, single point]"
2,CC1(C)Cc2c(cnn2-c2cccc(F)c2)C(NC(=O)Cn2cccn2)C1 (configuration not stated),"inconclusive: 35.5 µM [inhibitor, single point]"
3,COc1ccc(C2=NOC(C(=O)NCc3ccccc3)C2)cc1 (configuration not stated),inactive
4,Cc1ccc(C(=O)/C=C/c2ccc(Br)cc2)o1,inactive
5,Cc1ccc(C)c(NC(=S)NNC(=S)Nc2ccc(C(C)C)cc2)c1,"inconclusive: 10 µM [inhibitor, partial curve, poor fit]"
6,Cc1ccc(-c2cc(-c3ccco3)c3c(N)c(C(=O)NN)oc3n2)cc1,active: 11.2 µM
7,COC(=O)c1ccc(NCc2cc(O)ccc2O)cc1O,"inconclusive: 10 µM [inhibitor, partial curve]"
8,O=C(CCc1nc2ccccc2c(=O)[nH]1)Nc1cc(C(F)(F)F)ccc1N1CCOCC1,"inconclusive: 6.31 µM [inhibitor, single point]"
9,O=C(Nc1cccc(Cl)c1Cl)c1cc(S(=O)(=O)N2CCC3(CC2)OCCO3)ccc1F,inactive
10,COc1ccc(S(=O)(=O)N2CCOCC2)cc1NC(=O)c1cc2ccccc2o1,"inconclusive: 17.8 µM [inhibitor, partial curve, poor fit]"
11,CN1C/C(=C\c2ccc(N3CCOCC3)cc2)C(=O)/C(=C/c2ccc(N3CCOCC3)cc2)C1,active: 25.1 µM
12,CCOC(=O)Cc1csc(NC(=S)NC(=O)c2ccc(C)cc2)n1,"inconclusive: 17.8 µM [inhibitor, single point]"
13,CC1(C)Cc2c(cnn2-c2ccccc2)C(NC(=O)c2ccoc2)C1 (configuration not stated),"inconclusive: 0.562 µM [inhibitor, full curve, poor fit]"
14,Cc1cccc(C(=O)Nc2c(-c3ccc(F)cc3)nc3ccccn23)c1,"inconclusive: 3.16 µM [inhibitor, single point]"
15,CN(C(=S)NC(=O)C1CCCC1)c1ccccc1,"inconclusive: 20 µM [inhibitor, single point]"
16,CCOc1nc(NC(=O)NS(=O)(=O)Oc2cccc(F)c2)nc(-c2ccccc2)n1,inactive
17,COc1cccc(-c2ccc3c(N)c(C(=O)Nc4ccc(Cl)cc4F)sc3n2)c1,"inconclusive: 28.2 µM [inhibitor, single point]"
18,Cc1nnc(N2CCCC(C(=O)Nc3ccccc3C(F)(F)F)C2)c2nn(-c3ccccc3)c(C)c12 (configuration not stated),"inconclusive: 15.8 µM [inhibitor, single point]"
19,Cc1c(Cl)c(-c2n[nH]c(=S)n2-c2ccccc2)nn1C,"inconclusive: 10 µM [inhibitor, partial curve, poor fit]"
20,CCOc1ccccc1N1CC(c2nc3ccccc3n2CCOc2ccc(OC)cc2)CC1=O (configuration not stated),inactive
21,COc1ccc(-c2cc(C(=O)Nc3ccccc3O)c3ccccc3n2)cc1OC,"inconclusive: 22.4 µM [inhibitor, single point]"

# In a second layout: entries from further up
row | SMILES | Potency
4 | Cc1ccc(C(=O)/C=C/c2ccc(Br)cc2)o1 | inactive
5 | Cc1ccc(C)c(NC(=S)NNC(=S)Nc2ccc(C(C)C)cc2)c1 | inconclusive: 10 µM [inhibitor, partial curve, poor fit]
6 | Cc1ccc(-c2cc(-c3ccco3)c3c(N)c(C(=O)NN)oc3n2)cc1 | active: 11.2 µM
7 | COC(=O)c1ccc(NCc2cc(O)ccc2O)cc1O | inconclusive: 10 µM [inhibitor, partial curve]
8 | O=C(CCc1nc2ccccc2c(=O)[nH]1)Nc1cc(C(F)(F)F)ccc1N1CCOCC1 | inconclusive: 6.31 µM [inhibitor, single point]
